Assay results published in PMC10604874.

Sequences of proteins named here, by UniProt entry; tags and fusion partners are left off. A change or cut given only in a name is not applied to a line headed by its entry.
UniProt A0A7L7YY96: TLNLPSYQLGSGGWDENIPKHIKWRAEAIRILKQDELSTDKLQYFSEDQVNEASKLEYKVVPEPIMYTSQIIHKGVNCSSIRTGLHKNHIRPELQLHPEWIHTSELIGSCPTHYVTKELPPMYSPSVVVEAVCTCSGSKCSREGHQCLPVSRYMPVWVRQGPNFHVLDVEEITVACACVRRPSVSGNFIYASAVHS
UniProt A0A7L7YYC3: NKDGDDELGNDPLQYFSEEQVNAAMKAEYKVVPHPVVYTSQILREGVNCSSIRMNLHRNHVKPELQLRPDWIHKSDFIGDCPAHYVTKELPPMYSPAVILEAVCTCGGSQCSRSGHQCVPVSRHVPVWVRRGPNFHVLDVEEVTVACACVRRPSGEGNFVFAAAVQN

Molecular target: recombinant protein of the Lvit-IL-17R extracellular domain (Lysmata vittata)
Assay: pull-down; GST-tagged rIL-17R or GST on Glutathione Sepharose 4B; rCFSH1a/rCFSH1b added, 4 °C for 1 h; washed with 10 mM PBS pH 7.4; eluted with 50 mM Tris-Cl, 10 mM reduced glutathione, pH 8.0; SDS-PAGE and Western blot with anti-His antibody; both purified

binding | Substance
binds | Lvit-CFSH1b recombinant protein (crustacean female sex hormone 1b of Lysmata vittata) (from UniProt A0A7L7YY96) (ligand)
binds | Lvit-CFSH1a recombinant protein (crustacean female sex hormone 1a of Lysmata vittata) (from UniProt A0A7L7YYC3) (ligand)

These are yes or no findings as the source states them, for the method shown. A result given as binding can be weak or reduced; the word gives no strength.
